Results are given in words; binding and its absence hold for the method and conditions named. Binding seen in cells or lysates may run through a third protein. Some results given as binding are weak or reduced against the parent protein; the word gives no strength. For part of these data: Where a sequence is shown, tags or fusion partners need not be part of it. Values belong to the substance of their own block, whether it stands above or below them.
Assays:
[1] = biological target: T1, Flag-tagged lipin 1 (human) (UniProt Q14693); assay: co-IP; competition: HEK293T cells transfected with Flag-lipin 1, HA-Tip60 and varied amounts of Myc-Sirt1; immunoprecipitated with antibody to Flag, immunoblotted
T1 sequence: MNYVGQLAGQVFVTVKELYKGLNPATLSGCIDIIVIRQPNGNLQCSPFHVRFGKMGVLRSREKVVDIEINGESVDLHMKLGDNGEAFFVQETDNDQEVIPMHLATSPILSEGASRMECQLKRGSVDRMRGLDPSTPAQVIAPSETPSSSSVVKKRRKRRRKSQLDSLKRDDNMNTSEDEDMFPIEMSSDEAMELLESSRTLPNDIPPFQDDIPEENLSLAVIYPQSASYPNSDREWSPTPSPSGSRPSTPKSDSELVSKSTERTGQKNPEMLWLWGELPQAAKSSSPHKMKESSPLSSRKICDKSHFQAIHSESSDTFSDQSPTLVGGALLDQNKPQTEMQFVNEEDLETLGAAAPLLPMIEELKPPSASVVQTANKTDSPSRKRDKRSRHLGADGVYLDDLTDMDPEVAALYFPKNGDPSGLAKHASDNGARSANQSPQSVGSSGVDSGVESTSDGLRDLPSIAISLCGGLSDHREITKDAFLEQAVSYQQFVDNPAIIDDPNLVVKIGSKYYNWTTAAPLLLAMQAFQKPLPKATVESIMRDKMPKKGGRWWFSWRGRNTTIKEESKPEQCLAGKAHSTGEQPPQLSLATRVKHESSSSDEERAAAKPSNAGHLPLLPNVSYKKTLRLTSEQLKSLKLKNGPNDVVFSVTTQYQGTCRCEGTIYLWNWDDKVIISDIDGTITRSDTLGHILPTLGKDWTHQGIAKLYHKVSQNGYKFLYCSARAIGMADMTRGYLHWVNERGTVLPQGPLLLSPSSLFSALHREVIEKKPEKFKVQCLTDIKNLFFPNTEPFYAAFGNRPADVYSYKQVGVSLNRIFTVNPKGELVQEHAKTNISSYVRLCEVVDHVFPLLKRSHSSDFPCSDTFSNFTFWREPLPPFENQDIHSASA

Amino acid sequences for entries named in this document (tags omitted).
UniProt Q92993: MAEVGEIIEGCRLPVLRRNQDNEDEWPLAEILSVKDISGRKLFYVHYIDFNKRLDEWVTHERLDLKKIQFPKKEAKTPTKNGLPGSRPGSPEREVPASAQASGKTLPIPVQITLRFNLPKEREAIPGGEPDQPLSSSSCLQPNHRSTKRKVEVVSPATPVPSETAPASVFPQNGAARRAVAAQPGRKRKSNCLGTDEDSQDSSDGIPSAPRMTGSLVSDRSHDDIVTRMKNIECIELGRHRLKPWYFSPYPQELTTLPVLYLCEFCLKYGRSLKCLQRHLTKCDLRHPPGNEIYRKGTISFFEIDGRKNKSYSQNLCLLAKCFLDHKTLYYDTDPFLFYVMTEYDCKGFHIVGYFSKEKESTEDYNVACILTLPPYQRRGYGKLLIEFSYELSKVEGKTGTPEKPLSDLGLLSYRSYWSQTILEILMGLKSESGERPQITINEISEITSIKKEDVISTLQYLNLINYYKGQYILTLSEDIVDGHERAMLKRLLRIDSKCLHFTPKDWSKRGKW
UniProt Q8CHK4: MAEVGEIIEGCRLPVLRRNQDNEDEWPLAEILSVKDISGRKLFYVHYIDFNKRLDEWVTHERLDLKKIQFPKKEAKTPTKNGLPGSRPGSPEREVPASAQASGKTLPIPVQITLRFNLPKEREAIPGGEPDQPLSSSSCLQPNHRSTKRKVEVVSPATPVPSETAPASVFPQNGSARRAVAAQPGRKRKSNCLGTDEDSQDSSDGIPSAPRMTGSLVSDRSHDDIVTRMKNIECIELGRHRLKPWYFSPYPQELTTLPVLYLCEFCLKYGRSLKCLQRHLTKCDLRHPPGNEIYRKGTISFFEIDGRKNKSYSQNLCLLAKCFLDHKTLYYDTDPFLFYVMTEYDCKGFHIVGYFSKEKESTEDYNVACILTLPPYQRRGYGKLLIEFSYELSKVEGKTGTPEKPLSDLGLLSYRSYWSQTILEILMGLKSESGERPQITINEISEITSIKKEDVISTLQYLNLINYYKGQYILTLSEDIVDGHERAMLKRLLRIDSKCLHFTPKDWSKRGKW

[2] = biological target: T1, Flag-tagged lipin 1 (human); assay: co-IP; HEK293T cells co-transfected; protein extracts immunoprecipitated with antibody to Flag and immunoblotted; lysis buffer 20 mM Tris-HCl pH 7.4, 150 mM NaCl, 1% Triton
[3] = biological target: T2, endogenous lipin 1 (3T3-L1 adipocytes) (mouse (endogenous in 3T3-L1)) (UniProt Q91ZP3); assay: co-IP; endogenous proteins; lysates of 3T3-L1 adipocytes treated with or without OA for 3 h, immunoprecipitated by antibody to lipin 1 or Tip60, immunoblotting
T2 sequence: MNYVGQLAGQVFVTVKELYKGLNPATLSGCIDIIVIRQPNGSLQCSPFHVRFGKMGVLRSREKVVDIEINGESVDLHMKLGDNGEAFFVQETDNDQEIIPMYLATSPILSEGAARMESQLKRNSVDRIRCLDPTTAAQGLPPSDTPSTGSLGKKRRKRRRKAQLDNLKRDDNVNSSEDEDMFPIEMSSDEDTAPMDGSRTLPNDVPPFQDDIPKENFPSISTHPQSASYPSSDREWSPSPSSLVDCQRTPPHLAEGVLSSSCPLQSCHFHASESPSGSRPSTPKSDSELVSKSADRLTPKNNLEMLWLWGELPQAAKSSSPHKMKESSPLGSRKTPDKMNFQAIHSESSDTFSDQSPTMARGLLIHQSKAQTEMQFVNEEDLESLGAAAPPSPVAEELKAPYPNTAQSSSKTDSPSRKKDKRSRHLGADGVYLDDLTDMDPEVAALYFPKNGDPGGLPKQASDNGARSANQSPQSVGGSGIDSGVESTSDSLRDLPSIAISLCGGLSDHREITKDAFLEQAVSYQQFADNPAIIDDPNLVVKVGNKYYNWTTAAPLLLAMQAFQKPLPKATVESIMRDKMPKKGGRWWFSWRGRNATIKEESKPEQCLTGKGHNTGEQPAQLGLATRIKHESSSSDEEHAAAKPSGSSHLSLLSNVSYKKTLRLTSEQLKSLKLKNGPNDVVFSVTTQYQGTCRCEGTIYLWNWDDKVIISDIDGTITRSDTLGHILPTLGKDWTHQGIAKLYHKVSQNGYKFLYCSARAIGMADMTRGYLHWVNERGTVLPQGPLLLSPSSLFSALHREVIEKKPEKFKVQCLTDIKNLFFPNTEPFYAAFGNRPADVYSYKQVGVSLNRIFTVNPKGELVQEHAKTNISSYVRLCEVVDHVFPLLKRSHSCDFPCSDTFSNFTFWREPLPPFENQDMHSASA

- binding [1]: binds
Substance: HA-Tip60 (from UniProt Q92993 1-513)

- binding [2]: binds
Substance: Myc-tagged Tip60 (from UniProt Q92993 1-513)

- binding [3]: binds
Substance: endogenous Tip60 (3T3-L1 adipocytes) (from UniProt Q8CHK4 1-513)

— PMC5953937
